Results reported in the supplement of paper PMC6445147.
Single values of this data set are uncertain.

B1: human tRNA-Pro; a variant is named by its letters at N, in order (parent)
chain: GGCTCGTTGGTCTAGNGGTATGATTCTCGCTTAGGGTGCGAGAGGTCCCGGGTTCNNATCCCGGACGAGCCC

Columns and labels:
[1] = variants of: B1; experiment: tRNA Pol-III promoter activity, log2 (circRNA frequency / plasmid DNA frequency) (log2 ratio); higher = stronger promoter activity; settings: HEK293T; construct: no Pol-II promoter ((-)CMV library)
[2] = variants of: B1; experiment: tRNA 3' processing efficiency (processed reads / all reads, maximum-likelihood estimate) (fraction); higher = more efficient 3' processing; settings: HEK293T; construct: no Pol-II promoter ((-)CMV library)
[3] = variants of: B1; experiment: tRNA 5' processing efficiency (processed reads / all reads, maximum-likelihood estimate) (fraction); higher = more efficient 5' processing; settings: HEK293T; construct: CMV Pol-II promoter ((+)CMV library, decapped)

| Variant | tRNA Pol-III promoter activity (log2) [1] | tRNA 3' processing efficiency [2] | tRNA 5' processing efficiency [3] |
| --- | --- | --- | --- |
| GAA T8G G18A | -0.0588 | 0.57 |  |
| GAA T8C T19A A58C | 5.26 | 0.2 |  |
| GAA T8C T19A A58G | 6.53 | 0.5 |  |
| CAA T8C T59G | 6.2 | 0.23 |  |
| GAA T8C T19A T53A | 4.1 | 0.67 |  |
| TAA T8G G9C | 4.1 | 0.22 |  |
| GAA T8A G15C G17T | 3.04 | 0.25 |  |
| GAA T8C G9A G18A | 3.29 | 0.14 |  |
| GAA T8A A14T | 0.127 | 0.75 | 0.33 |
| TAA G18T A20T | 3.16 | 0.43 |  |
| GAA T8C T19C | 1.18 | 0.3 | 0.5 |
| GAA G17T T19G T54A | 3.62 | 0.25 |  |
| TAA T8G G15T A20T T59C | 3.93 | 0.33 |  |
| GAA T8C A14C T54A | 6.1 | 0.33 |  |
| TAA T8C A58T | 3.27 | 0.33 |  |
| GAA G18A A20T T53A | 4.48 | 0.15 |  |
| GAA T8C C55T | 0.62 | 0.1 |  |
| CAA T8C T54A | 3.67 | 0.4 |  |
| GAA T8G G15T | 0.384 | 0.67 |  |
| GAA T8G G15C | -0.307 | 0.35 |  |
| GAA T8G G15T T53A A58C T59A | 5.16 | 0.71 |  |
| GAA G17T T54G | -0.416 | 0.17 |  |
| GAA T8G A58G T59C | 4.15 | 0.29 |  |

| Variant | tRNA Pol-III promoter activity (log2) [1] | tRNA 3' processing efficiency [2] | tRNA 5' processing efficiency [3] |
| --- | --- | --- | --- |
| GAA T8C A20T T59C | 3.9 | 0.39 |  |
| GAA T8A A14C G15C T53G | 6.25 | 0.4 |  |
| GAA G18A T19C A58T | 3.19 | 0.4 |  |
| GAA T8C T54A | 0.934 | 0.53 |  |
| GAA T8C A14C A58T | 3.42 | 0.25 |  |
| GAA T8C A14C A58C | 6.51 | 0.78 |  |
| GAA T8C A14C A58G | 5.07 | 0.22 |  |
| GAA G18A C55T | -0.666 | 0.5 | 0.2 |
| TAA T8C T19G | 5.4 | 0.27 |  |
| GAA T8C G18T T59A | 3.36 | 0.38 |  |
| GAA T8A T59A | 0.0926 | 0.35 |  |
| GAA T8A T59C | 0.738 | 0.38 |  |
| GAA T8C T59A | 0.0214 | 0.25 | 0.2 |
| GAA T8C T59C | 3.21 | 0.44 |  |
| GAA T8C T59G | 2.04 | 0.38 |  |
| GAA G18T T59G | 0.942 | 0.33 |  |
| GAA G18T T59C | 1.1 | 0.62 |  |
| GAA G18T T59A | 0.454 | 0.67 |  |
| GAA T8C A14T T59C | 2.8 | 0.4 |  |
| GAA T8C A14T T59G | 3.12 | 0.25 |  |
| GAA T8C G9A | 0.948 | 0.89 |  |
| CAA T8C T19G | 3.19 | 0.2 |  |
| CAA G18T T19G T53A | 5.25 | 0.2 |  |

| Variant | tRNA Pol-III promoter activity (log2) [1] | tRNA 3' processing efficiency [2] | tRNA 5' processing efficiency [3] |
| --- | --- | --- | --- |
| GAA T8C A14T T19A | 3.13 | 0.25 |  |
| GAA T8C A20T A58C | 4.85 | 0.12 |  |
| GAA T8C A14T G15T A58G | 5.36 | 0.4 |  |
| GAA T8A T53G | 1.66 | 0.18 |  |
| AAA T8C G9A G15T G18T A58G | 6.62 | 0.89 |  |
| GAA T8G A14C T59G | 3.94 | 0.3 |  |
| GAA T8A T19A A58G T59G | 4.03 | 0.8 |  |
| GAA G17T T59C | -0.744 | 0.25 |  |
| GAA G17T T59A | 1.35 | 0.54 |  |
| GAA G17T T59G | -0.079 | 0.38 |  |
| GAA T8G A20G T54C | 5.94 | 0.87 |  |
| CAA G18A A20T T59G | 5.4 | 0.06 |  |
| CAA G17T T53A | 1.81 | 0.5 |  |
| CAA T8C A14G | 2.77 | 0.25 |  |
| GAA G17T T19A T53A A58G | 4.68 | 0.2 |  |
| CAA T8C T19G A58G | 6.51 | 0.33 |  |
| GAA G17T T19C T59G | 5.26 | 0.2 |  |
| GAA T8G A14G G18A | 5.36 | 0.5 |  |
| GAA T8C T53A T59G | 3.94 | 0.25 |  |
| TAA T8C | 3.4 | 0.69 | 0.14 |
| GAA T8C G18A | -0.084 | 0.22 |  |
| GAA T8G G15C T59A | 4.21 | 0.42 |  |
| CAA T8A G18T | 3.93 | 0.33 |  |

| Variant | tRNA Pol-III promoter activity (log2) [1] | tRNA 3' processing efficiency [2] | tRNA 5' processing efficiency [3] |
| --- | --- | --- | --- |
| GAA G34A | 2.73 | 0.25 |  |
| GAA T8C G17C T59G | 4.26 | 0.57 |  |
| GAA T8C G15C A58C | 4.21 | 0.17 |  |
| GAA T8A A58G T59A | 3.25 | 0.4 |  |
| GAA T8A A58G T59G | 6.25 | 0.6 |  |
| GAA T8C G15C T19A | 3.94 | 0.62 |  |
| GAA T8G G15C T53G | 3.36 | 0.4 |  |
| TAA T8C T54A | 3.53 | 0.33 |  |
| GAA G29A T53G | 5.03 | 0.25 |  |
| GAA T8A G15T A20T A58T T59G | 7.94 | 0.06 |  |
| GAA G18A T59A | 0.447 | 0.5 |  |
| GAA G18A T59C | 0.532 | 0.33 |  |
| GAA T8A A58T | -0.38 | 0.2 |  |
| TAA G18C A58T | 3.25 | 0.2 |  |
| TAA G18C A58C | 4.36 | 0.4 |  |
| GAA G18A A58T | -1.18 | 0.4 |  |
| GAA G18A A58G | -0.585 | 0.18 | 0.25 |
| GAA G18A A58C | 0.172 | 0.49 | 0.5 |
| GAA T8C G15T T53A A58T | 4.36 | 0.5 |  |
| GAA T8C G9C G15T T54G C55T A58C | 4.79 | 0.78 |  |
| GAA T8C T19C T53A | 3.81 | 0.5 |  |
| GAA G18A T53G | 0.0956 | 0.5 |  |
| GAA G18A T53A | 1.17 | 0.22 | 0.5 |

| Variant | tRNA Pol-III promoter activity (log2) [1] | tRNA 3' processing efficiency [2] | tRNA 5' processing efficiency [3] |
| --- | --- | --- | --- |
| GAA T8C A14T | -0.251 | 0.25 | 0.2 |
| GAA T8C A14C | 1.62 | 0.27 |  |
| GAA T8C A14G | 2 | 0.39 | 0.5 |
| GAA T8G G9T T19A T59G | 4.03 | 0.33 |  |
| GAA T8A A14C G15C | 7.25 | 0.3 |  |
| GAA T8A G15T G18T | 5.62 | 0.83 |  |
| GAA G17T T19C T53A | 3.5 | 0.67 |  |
| GAA T8C T19G T53G | 4.94 | 0.25 |  |
| GAA T8C G9A G18A A20T T54A | 5.53 | 0.67 |  |
| GAA G17T T53A | 0.742 | 0.37 |  |
| GAA G17T T53G | 0.0185 | 0.27 |  |
| CAA T8A | 0.0214 | 0.4 | 0.33 |
| GAA T8G A20T T59G | 3.53 | 0.5 |  |
| GAA T8A A14T C55A | 2.21 | 0.33 |  |
| GAA T8A T53A C55A A58G | 4.93 | 0.17 |  |
| GAA T8C A14T A20T | 6.02 | 0.46 |  |
| GAA T8A | -0.681 | 0.95 | 0.33 |
| GAA T8G | -3.79 | 0.28 | 0.24 |
| GAA T8C | -0.657 | 0.6 | 0.44 |

Fetched one by one from above:

| Variant | tRNA Pol-III promoter activity (log2) [1] | tRNA 3' processing efficiency [2] | tRNA 5' processing efficiency [3] |
| --- | --- | --- | --- |
| GAA T8G | -3.79 | 0.28 | 0.24 |
| GAA T8A T53A C55A A58G | 4.93 | 0.17 |  |

Reformatted as labelled records: part of the list above.
GAA T8C G9A G18A A20T T54A
  tRNA Pol-III promoter activity (log2) [1]: 5.53; tRNA 3' processing efficiency [2]: 0.67
GAA G17T T53A
  tRNA Pol-III promoter activity (log2) [1]: 0.742; tRNA 3' processing efficiency [2]: 0.37
GAA T8C A14T A20T
  tRNA Pol-III promoter activity (log2) [1]: 6.02; tRNA 3' processing efficiency [2]: 0.46
